# The supplement of paper PMC8728848
# This is one part of the list.
# What was measured:
# Experiment in all cases: glycan array binding signal (z-score within array); higher = stronger binding
# Settings in all cases: glycan notation: IUPAC condensed, linker removed
# [1] = target: Gal(b1-3)GlcNAc(b1-2)Man(a1-3)[Gal(b1-3)GlcNAc(b1-2)Man(a1-6)]Man(b1-4)GlcNAc(b1-4)GlcNAc
# Summary of the method: (§1)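 Glycan array data came from 3228 arrays in the Consortium for Functional Glycomics database, and only arrays with an available protein sequence were kept. Glycan names were put into IUPAC-condensed notation, and columns mapping to the same glycan were averaged. The binding signal is a within-array Z-score, averaged across arrays of one protein sequence run at different concentrations or buffers and across linkers. A negative Z-score can be read as non-binding.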
# [2] = target: Gal(b1-3)GlcNAc(b1-2)Man(a1-3)[Gal(b1-3)GlcNAc(b1-2)Man(a1-6)]Man(b1-4)GlcNAc(b1-4)[Fuc(a1-6)]GlcNAc
# Summary of the method: as §1
# [3] = target: Gal(b1-3)GlcNAc(b1-2)Man(a1-3)[GlcNAc(b1-4)][Gal(b1-3)GlcNAc(b1-2)Man(a1-6)]Man(b1-4)GlcNAc(b1-4)GlcNAc
# Summary of the method: as §1
# [4] = target: Gal(b1-3)GlcNAc(b1-2)[Gal(b1-3)GlcNAc(b1-6)]Man(a1-6)[Gal(b1-3)GlcNAc(b1-2)Man(a1-3)]Man(b1-4)GlcNAc(b1-4)GlcNAc
# Summary of the method: as §1
# [5] = target: Gal(b1-3)GlcNAc(b1-3)Gal(b1-3)GlcNAc
# Summary of the method: as §1
# [6] = target: Gal(b1-3)GlcNAc(b1-3)Gal(b1-4)Glc
# Summary of the method: as §1
# [7] = target: Gal(b1-3)GlcNAc(b1-3)Gal(b1-4)GlcNAc
# Summary of the method: as §1
# [8] = target: Gal(b1-3)GlcNAc(b1-3)Gal(b1-4)GlcNAc(b1-2)Man(a1-3)[Gal(b1-3)GlcNAc(b1-3)Gal(b1-4)GlcNAc(b1-2)Man(a1-6)]Man(b1-4)GlcNAc(b1-4)GlcNAc
# Summary of the method: as §1
# [9] = target: Gal(b1-3)GlcNAc(b1-3)Gal(b1-4)GlcNAc(b1-2)[Gal(b1-3)GlcNAc(b1-3)Gal(b1-4)GlcNAc(b1-6)]Man(a1-6)[Gal(b1-3)GlcNAc(b1-3)Gal(b1-4)GlcNAc(b1-2)Man(a1-3)]Man(b1-4)GlcNAc(b1-4)[Fuc(a1-6)]GlcNAc
# Summary of the method: as §1
# [10] = target: Gal(b1-3)GlcNAc(b1-3)Gal(b1-4)GlcNAc(b1-3)Gal(b1-4)GlcNAc(b1-2)[Gal(b1-3)GlcNAc(b1-3)Gal(b1-4)GlcNAc(b1-3)Gal(b1-4)GlcNAc(b1-6)]Man(a1-6)[Gal(b1-3)GlcNAc(b1-3)Gal(b1-4)GlcNAc(b1-3)Gal(b1-4)GlcNAc(b1-2)Man(a1-3)]Man(b1-4)GlcNAc(b1-4)[Fuc(a1-6)]GlcNAc
# Summary of the method: as §1
# [11] = target: Gal(b1-3)GlcNAc(b1-3)Gal(b1-4)GlcNAc(b1-6)[Gal(b1-3)GlcNAc(b1-3)]Gal(b1-4)Glc
# Summary of the method: as §1
# [12] = target: Gal(b1-3)GlcNAc(b1-3)Gal(b1-4)[Fuc(a1-3)]GlcNAc
# Summary of the method: as §1
# [13] = target: Gal(b1-3)GlcNAc(b1-3)Gal(b1-4)[Fuc(a1-3)]GlcNAc(b1-6)[Gal(b1-3)GlcNAc(b1-3)]Gal(b1-4)Glc
# Summary of the method: as §1
# [14] = target: Gal(b1-3)GlcNAc(b1-3)GalNAc
# Summary of the method: as §1
# [15] = target: Gal(b1-3)GlcNAc(b1-6)Gal(b1-4)GlcNAc
# Summary of the method: as §1
# [16] = target: Gal(b1-3)GlcNAc(b1-6)GalNAc
# Summary of the method: as §1
# [17] = target: Gal(b1-3)GlcNAc(b1-6)[Gal(b1-3)]GalNAc
# Summary of the method: as §1
# Gal(b1-3)GlcNAc6S = target: Gal(b1-3)GlcNAc6S
# Summary of the method: as §1
# [18] = target: Gal(b1-3)[Fuc(a1-4)]GlcNAc
# Summary of the method: as §1
# [19] = target: Gal(b1-3)[Fuc(a1-4)]GlcNAc(b1-2)Man
# Summary of the method: as §1
# [20] = target: Gal(b1-3)[Fuc(a1-4)]GlcNAc(b1-2)Man(a1-3)[Gal(b1-3)[Fuc(a1-4)]GlcNAc(b1-2)Man(a1-6)]Man(b1-4)GlcNAc(b1-4)[Fuc(a1-6)]GlcNAc
# Summary of the method: as §1
# [21] = target: Gal(b1-3)[Fuc(a1-4)]GlcNAc(b1-3)Gal(b1-3)[Fuc(a1-4)]GlcNAc
# Summary of the method: as §1
# [22] = target: Gal(b1-3)[Fuc(a1-4)]GlcNAc(b1-3)Gal(b1-4)[Fuc(a1-3)]GlcNAc
# Summary of the method: as §1
# [23] = target: Gal(b1-3)[Fuc(a1-4)]GlcNAc(b1-6)GalNAc
# Summary of the method: as §1
# [24] = target: Gal(b1-3)[GlcNAc(b1-6)]GalNAc
# Summary of the method: as §1
# [25] = target: Gal(b1-3)[Neu5Ac(a2-6)]GalNAc
# Summary of the method: as §1
# [26] = target: Gal(b1-3)[Neu5Ac(a2-6)]GlcNAc(b1-4)Gal(b1-4)Glc
# Summary of the method: as §1
# [27] = target: Gal(b1-3)[Neu5Ac(b2-6)]GalNAc
# Summary of the method: as §1
# Gal(b1-4)Gal = target: Gal(b1-4)Gal
# Summary of the method: as §1
# [28] = target: Gal(b1-4)GalNAc(a1-3)[Fuc(a1-2)]Gal(b1-4)GlcNAc
# Summary of the method: as §1
# [29] = target: Gal(b1-4)GalNAc(b1-3)[Fuc(a1-2)]Gal(b1-4)GlcNAc
# Summary of the method: as §1
# Gal(b1-4)Glc = target: Gal(b1-4)Glc
# Summary of the method: as §1
# Gal(b1-4)Glc6S = target: Gal(b1-4)Glc6S
# Summary of the method: as §1
# Gal(b1-4)GlcNAc = target: Gal(b1-4)GlcNAc
# Summary of the method: as §1
# [30] = target: Gal(b1-4)GlcNAc(a1-6)Gal(b1-4)GlcNAc
# Summary of the method: as §1
# Gal(b1-4)GlcNAc(b1-2)Man = target: Gal(b1-4)GlcNAc(b1-2)Man
# Summary of the method: as §1
# [31] = target: Gal(b1-4)GlcNAc(b1-2)Man(a1-3)Man(b1-4)GlcNAc(b1-4)GlcNAc
# Summary of the method: as §1
binder,measurement,setting,value
LlpA (Arthrobacter sp) (protein) MGSSHHHHHHSSGLVPRGSHMTLHPETALRPGAAATSPNSRYRLLYQTDGNLVLYGPDGPLWDSGTNGHGAGACIMQADGNLVLYGPNDEYVWDTETDNNPGSRLVIQDDGNAVIYRPDGSPLWATETCQPPGSADSHVLQSGSTLTPTHGIRSANGLYGLLYQTDGNLVFYGPDGPLWDSGTNGRGAGACIMQPDGNLVLYGPHDEYVWDTETDNNPGSRLVIQDDGNAVIYRPDGNPTWVTGTH,glycan array binding signal (z-score),[1],1.75
same,glycan array binding signal (z-score),[2],0.47
same,glycan array binding signal (z-score),[3],-0.169
same,glycan array binding signal (z-score),[4],0.558
same,glycan array binding signal (z-score),[5],-0.589
same,glycan array binding signal (z-score),[6],0.063
same,glycan array binding signal (z-score),[7],-0.022
same,glycan array binding signal (z-score),[8],0.051
same,glycan array binding signal (z-score),[9],1.06
same,glycan array binding signal (z-score),[10],0.626
same,glycan array binding signal (z-score),[11],0.713
same,glycan array binding signal (z-score),[12],-0.104
same,glycan array binding signal (z-score),[13],-0.389
same,glycan array binding signal (z-score),[14],-0.118
same,glycan array binding signal (z-score),[15],1.03
same,glycan array binding signal (z-score),[16],-0.718
same,glycan array binding signal (z-score),[17],-0.823
same,glycan array binding signal (z-score),Gal(b1-3)GlcNAc6S,-0.465
same,glycan array binding signal (z-score),[18],-0.367
same,glycan array binding signal (z-score),[19],0.309
same,glycan array binding signal (z-score),[20],0.672
same,glycan array binding signal (z-score),[21],-0.753
same,glycan array binding signal (z-score),[22],-0.845
same,glycan array binding signal (z-score),[23],0.957
same,glycan array binding signal (z-score),[24],-0.25
same,glycan array binding signal (z-score),[25],-0.937
same,glycan array binding signal (z-score),[26],-0.842
same,glycan array binding signal (z-score),[27],-0.148
same,glycan array binding signal (z-score),Gal(b1-4)Gal,1.03
same,glycan array binding signal (z-score),[28],-0.375
same,glycan array binding signal (z-score),[29],-0.494
same,glycan array binding signal (z-score),Gal(b1-4)Glc,-0.295
same,glycan array binding signal (z-score),Gal(b1-4)Glc6S,0.128
same,glycan array binding signal (z-score),Gal(b1-4)GlcNAc,-0.336
same,glycan array binding signal (z-score),[30],-0.48
same,glycan array binding signal (z-score),Gal(b1-4)GlcNAc(b1-2)Man,-0.011
same,glycan array binding signal (z-score),[31],0.961

# Random excerpt: 3 entries already listed
binder,measurement,setting,value
LlpA (Arthrobacter sp) (protein) MGSSHHHHHHSSGLVPRGSHMTLHPETALRPGAAATSPNSRYRLLYQTDGNLVLYGPDGPLWDSGTNGHGAGACIMQADGNLVLYGPNDEYVWDTETDNNPGSRLVIQDDGNAVIYRPDGSPLWATETCQPPGSADSHVLQSGSTLTPTHGIRSANGLYGLLYQTDGNLVFYGPDGPLWDSGTNGRGAGACIMQPDGNLVLYGPHDEYVWDTETDNNPGSRLVIQDDGNAVIYRPDGNPTWVTGTH,glycan array binding signal (z-score),[25],-0.937
same,glycan array binding signal (z-score),[18],-0.367
same,glycan array binding signal (z-score),[28],-0.375
